PubChem BioAssay AID1347423 (Functional Genomics Laboratory (NCATS/FGL), 2020)
About 210 (0.4%) of roughly 52,000 sequences were called active.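 The calls were made as follows: active = gene whose silencing raises cell survival under the drug, median off-target-corrected z-score across its silencing RNAs 2 or more; inactive = the rest.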 The list shows a part of the results.

Experiment: Resistance to Poly (ADP-Ribose) Polymerase inhibitor: Gene Identification via Genome-wide siRNA Screen
Details: mouse BRCA2 R2336H ES cells, olaparib, CellTiter-Glo viability; hits give high values
Summary of the method: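 Genome-wide siRNA screen (3 siRNAs/gene, 20 nM) in mouse ES cells carrying hypomorphic BRCA2 R2336H; olaparib 500 nM added 48 h post-transfection, CellTiter-Glo viability 72 h later. Normalized to plate-median negative control; MAD z-scores, gene median, seed-adjusted.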

Which z-score does the source give for GGGCUACAUAGGCUUAGACTT against Ptpru here?
The z-score was inactive: 0.553.

Which z-score does the source give for GGUUUUAGAAUGUCUUUCATT against Hrsp12 here?
The z-score was inactive: 0.263.

With GGGCGGUUCAAAAGGUCAGTT against Cacnb1 as the sequence, how does the z-score read?
Its z-score is inactive: 0.407.

Which z-score does the source give for GGGCUCUUUAGUACUAGAATT against Spn here?
The z-score was inactive: -0.849.

For GGAAGAGACGAAAUCCUUUTT against Sos1, which z-score is on record?
Its z-score is inactive: 2.1.

Which z-score does the source give for CGGGACUGUAAAUUGACCUTT against Scube3 here?
Its z-score is inactive: 0.121.

For GCACCUGAGAAGCUCAUUGTT against Bclp2, which z-score is on record?
The z-score was inactive: -0.732.

For CCUCUCCUACACUUCAAAATT against Cmya4, which z-score is on record?
The z-score was inactive: 0.746.

For GGACUCUGGUUAGGAGUUGTT against Tbce, which z-score is on record?
Its z-score is inactive: 0.295.

For GGUUCCAAGAGUGACAAUATT against Nnt, which z-score is on record?
The z-score was inactive: -0.807.

For GUCUACCAGAUCCUUCCCUTT against H2-Q8, which z-score is on record?
Its z-score is inactive: -1.06.

With CGAGCAUUCACCGUACGUATT against Idb4 as the sequence, how does the z-score read?
Its z-score is inactive: 0.999.

With CCCUCAUGUUUCAUUUGUGTT against Txnl2 as the sequence, how does the z-score read?
The z-score was inactive: 2.69.

For “GGUUUCAAUAAUCCAGGAATT against 1300019C06Rik”, which z-score is on record?
Its z-score is inactive: 0.169.

Which z-score does the source give for “GGAUGGAUCUUCUUGAUUATT against 5230400J09Rik” here?
The z-score was inactive: -0.406.

With GGUCCUACCAUCUUAUAUGTT against Serpina5 as the sequence, how does the z-score read?
The z-score was inactive: 0.26.

With GCAAUGAGUAUUCAUGCAATT against Sec61a2 as the sequence, how does the z-score read?
Its z-score is inactive: -0.423.

Which z-score does the source give for GGGACUAUGACAAAACAGCTT against Atad2 here?
The z-score was inactive: 1.08.

For GCUGCUAAAGGUGACAUUCTT against Col4a4, which z-score is on record?
Its z-score is inactive: -1.11.

For GCUGUCUUAUUGUGAACCUTT against Olfr1173, which z-score is on record?
The z-score was inactive: -0.694.

Which z-score does the source give for GGCCAAUCAGCCAUCCUAUTT against Lilrb4 here?
The z-score was inactive: 0.0505.

For GAAAUAGAUGAAGACCGGATT against Ppp1r1a, which z-score is on record?
Its z-score is inactive: -0.283.

Which z-score does the source give for “GCCCUGUUCCAAAUGUAACTT against 1700003E24Rik” here?
The z-score was inactive: 0.443.

With CCCUCUACUAUGCGUUCUATT against Otop3 as the sequence, how does the z-score read?
Its z-score is inactive: -1.12.

With GGACAAUGUGAUGAAGAUUTT against Fgfr3 as the sequence, how does the z-score read?
The z-score was inactive: 2.61.

For AUAACUACGUAUGUGAUGUTT against Olfr885, which z-score is on record?
Its z-score is inactive: 0.959.

With CGCGAGUUAUUUCUCAUAUTT against Pik3cb as the sequence, how does the z-score read?
Its z-score is inactive: 0.53.

For GGUGAAGAAGAUGACAUUATT against Spock3, which z-score is on record?
The z-score was inactive: 0.698.

Which z-score does the source give for GGAUGACAGAGAUCUCACATT against Gsh1 here?
Its z-score is inactive: 1.82.
